Patent US20250215091A1, “Anti-GAL3 Antibodies and Compositions” (Les Laboratoires Servier, priority 2022, published 2025)
No constants are given. Whether binding was seen depends on the method and setting. Some entries that bind do so weakly or less than the wild type.

By UniProt entry, the sequences of proteins in these tests, tags left out. Where a name states a change or a piece, a line headed by the entry shows the natural chain unless it says otherwise.
UniProt P17931: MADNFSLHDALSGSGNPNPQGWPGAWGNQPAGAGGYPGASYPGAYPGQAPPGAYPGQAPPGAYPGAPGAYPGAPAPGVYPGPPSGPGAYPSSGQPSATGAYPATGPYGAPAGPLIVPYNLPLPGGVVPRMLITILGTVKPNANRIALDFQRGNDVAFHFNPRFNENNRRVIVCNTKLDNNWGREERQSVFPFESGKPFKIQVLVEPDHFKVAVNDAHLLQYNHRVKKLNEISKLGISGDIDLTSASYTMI
UniProt P16110: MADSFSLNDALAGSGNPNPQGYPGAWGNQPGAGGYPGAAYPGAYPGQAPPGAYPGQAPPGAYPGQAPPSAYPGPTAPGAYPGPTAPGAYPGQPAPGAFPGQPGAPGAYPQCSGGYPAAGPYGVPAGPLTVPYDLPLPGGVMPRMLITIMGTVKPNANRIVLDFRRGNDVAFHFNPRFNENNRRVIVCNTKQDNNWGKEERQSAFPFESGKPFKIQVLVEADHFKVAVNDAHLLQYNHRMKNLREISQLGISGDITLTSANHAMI

Experiments:
[1] = biological target: full length human Galectin-3 (human) (UniProt P17931); assay: ELISA on His-tag-immobilised antigen (3 µg/mL), purified IgG at 15-20 µg/mL, anti-Fab.HRP, OD 450 nm
[2] = biological target: T1, CRD domain of human Galectin-3 (human, UniProt P17931 106-250); assay: as above
T1 construct: Histidine-tagged; also called hu-Gal3-CRD; Hu-Gal3-CRD

[3] = biological target: full length mouse Galectin-3 (mouse) (UniProt P16110); assay: as above
[4] = biological target: T1, CRD domain of human Galectin-3; assay: ELISA on immobilised antigen (3 µg/mL), purified IgG at 15-20 µg/mL, anti-Fab.HRP, OD 450 nm
[5] = biological target: full length mouse Galectin-3 (mouse) (UniProt P16110); assay: dose-response ELISA on immobilized m-Gal3-FL
[6] = biological target: full length human Galectin-3 (human) (UniProt P17931); assay: dose-response ELISA on His-tag-immobilised antigen (3 µg/mL), 3.3-fold serial dilution of IgG, anti-Fab.HRP, OD 450 nm [panel B12]
[7] = biological target: full length mouse Galectin-3 (mouse) (UniProt P16110); assay: as above
[8] = biological target: full length human Galectin-3 (human) (UniProt P17931); assay: ELISA, immobilized antigen, purified IgG 15-20 µg/mL
[9] = biological target: full length mouse Galectin-3 (mouse) (UniProt P16110); assay: as above
[10] = biological target: full length human Galectin-3 (human) (UniProt P17931); assay: dose-response ELISA on immobilized Hu-Gal3-FL
[11] = biological target: T1, CRD domain of human Galectin-3; assay: ELISA, purified IgG 15-20 µg/mL; Gal3 of this experiment is Hu-Gal3-CRD (legend of FIG. 4)
[12] = biological target: T1, CRD domain of human Galectin-3; assay: competitive ELISA: ASF (8 µg/mL) binding to immobilised Hu-Gal3-CRD (1 µg/mL) with serial dilution of IgG; HRP-labeled anti-ASF antibody; Binding [%] [panel H10 + ASF]
[13] = biological target: full length human Galectin-3 (human) (UniProt P17931); assay: dose-response ELISA on His-tag-immobilised antigen (3 µg/mL), 3.3-fold serial dilution of IgG, anti-Fab.HRP, OD 450 nm [panel H10]
[14] = biological target: full length mouse Galectin-3 (mouse) (UniProt P16110); assay: as above
[15] = biological target: full length human Galectin-3 (human) (UniProt P17931); assay: ELISA on His-tag-immobilised antigen (3 µg/mL), periplasmic extract with scFv, anti-scFvTag.HRP, OD 450 nm
[16] = biological target: T1, CRD domain of human Galectin-3; assay: as above
[17] = biological target: full length mouse Galectin-3 (mouse) (UniProt P16110); assay: as above
[18] = biological target: full length human Galectin-3 (human) (UniProt P17931); assay: competitive ELISA: ASF (30 µg/mL) binding to immobilised Hu-Gal3-FL (3 µg/mL) with periplasmic extract with scFv; sheep anti-ASF and anti-sheep.HRP; signal in % of the irrelevant scFv
[19] = biological target: full length human Galectin-3 (human) (UniProt P17931); assay: ELISA, immobilized antigen, periplasmic scFv extract
[20] = biological target: full length mouse Galectin-3 (mouse) (UniProt P16110); assay: as above

Measured: binding

B1: anti-Gal3 antibody B12 (antibody, V domains shown)
VH: EVQLVESGGSLVKPGGSLRLSCAASGFTFSNDDMNWVRQAPGKGLEWISSIDGSSRSIYYADFVKGRFTISRDNAKNSLYLQMNSLRAEDTAVYYCVRSSGYSGGGMDVWGRGTLVTVSS
VL: QSVLTQPASVSGSPGQSITISCAGTSSDVGGSYNVAWYQQHPGKAPKLMIYSDSYRPSGVSNRFSGSKSGNTASLTISGLQAEDEADYYCSSYTSNSARVFGGGTKLEIK
binds: [1] | [2] | [3] | [4] | [5] | [6] | [7] | [8] | [9] | [10] | [11]

B2: anti-Gal3 antibody H10 (antibody, V domains shown)
VH: EVQLVESGGSLVKPGGSLRLSCAASGFTFSNYYMNWVRQAPGKGLEWISYINGASRDISYADFVKGRFTISRDNAKNSLYLQMNSLRAEDTAVYYCVRSSYGYSNYGSGMDVWGRGTLVTVSS
VL: QSVLTQPASVSGSPGQSITISCAGTSSDVGGSYNVAWYQQHPGKAPKLMIYNDANRPSGVSNRFSGSKSGNTASLTISGLQAEDEADYYCSSNTADSTRVFGGGTKLEIK
binds: [1] | [2] | [3] | [4] | [12] | [8] | [9] | [13] | [14] | [11]

B3: anti-Gal3 scFv H10 (scFv, V domains shown, not shown: small tags and cut ends)
VH: EVQLVESGGSLVKPGGSLRLSCAASGFTFSNYYMNWVRQAPGKGLEWISYINGASRDISYADFVKGRFTISRDNAKNSLYLQMNSLRAEDTAVYYCVRSSYGYSNYGSGMDVWGRGTLVTVSS
VL: QSVLTQPASVSGSPGQSITISCAGTSSDVGGSYNVAWYQQHPGKAPKLMIYNDANRPSGVSNRFSGSKSGNTASLTISGLQAEDEADYYCSSNTADSTRVFGGGTKLEIK
notes: Periplasmic extract from E. coli; also called H10 (scFv)
binds: [15] | [16] | [17] | [18] | [19] | [20]

B4: anti-Gal3 scFv B12 (scFv, V domains shown, not shown: small tags and cut ends)
VH: EVQLVESGGSLVKPGGSLRLSCAASGFTFSNDDMNWVRQAPGKGLEWISSIDGSSRSIYYADFVKGRFTISRDNAKNSLYLQMNSLRAEDTAVYYCVRSSGYSGGGMDVWGRGTLVTVSS
VL: QSVLTQPASVSGSPGQSITISCAGTSSDVGGSYNVAWYQQHPGKAPKLMIYSDSYRPSGVSNRFSGSKSGNTASLTISGLQAEDEADYYCSSYTSNSARVFGGGTKLEIK
notes: Periplasmic extract from E. coli; also called B12 (scFv)
binds: [15] | [16] | [17] | [18] | [19] | [20]
